Measured values from PubChem BioAssay AID504594 (Broad Institute, 2011).
In all, about 2,000 compounds went through this assay and fewer than 10 were called active.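 How the source made its calls: active means growth inhibition of at least 75% in every replicate, which also brings the mean inhibition to 75% or more; inconclusive means mean inhibition 75% or more but some replicate under 75%; inactive means the rest.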 This is one part of the list.

Assay: growth inhibition of PfHsp90-dependent yeast, primary screen, antimalarial PfHsp90 inhibitor project, S. cerevisiae, BacTiter-Glo luminescence (AID 504594);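 further: 0% = DMSO neutral control wells and 100% = 20 µM radicicol control wells; higher value means stronger growth inhibition because the sign is flipped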
Details: S. cerevisiae expressing PfHsp90, BacTiter-Glo growth, 48 h; at 9.4 µM; active compounds read high

Growth inhibition, inactive:
CSc1cccc(NC(=O)/C=C/c2ccccc2)c1 -2.48%
COc1c2occc2c(OC)c2c(=O)cc(C)oc12 5.39%
COc1ccc(CCN(C)CCCC(C#N)(c2cc(OC)c(OC)c(OC)c2)C(C)C)cc1OC (configuration not stated) -2.04%
O=C(O)C(O)c1ccccc1 (configuration not stated) -20.3%
CC(C)(C)C(=O)N1CCCC1C(=O)O (configuration not stated) -5.36%
COc1ccc(-c2coc3cc(OC(=O)N4CCOCC4)ccc3c2=O)cc1 -8.44%
COc1cccc2c1OCC1COc3c(c(=O)n(C)c(=O)n3C)C21 (configuration not stated) 1.47%
CC1(C)CC(NC(=O)C23CCC(C)(C(=O)C2=O)C3(C)C)CC(C)(C)N1 (configuration not stated) 4.32%
N=c1c[n+](N2CCOCC2)[n-]o1 -3.2%
CN1CCN(CCCN2c3ccccc3Sc3ccc(Cl)cc32)CC1 11.5%
CC(C)CC(=O)OC1C(N2CCOCC2)c2c(ccc(/C=C/C(=O)N3CCOCC3)c2O)OC1(C)C (configuration not stated) 5.89%
Nc1cccc2c1nnn2C1OC(CO)C(O)C(O)C1O (configuration not stated) -0.754%
Cc1ccccc1C(=O)Oc1ccc(Sc2ccc(O)cc2)cc1 2.85%
O=C(NCCN1CCCCC1)c1c(O)c2ccccc2[nH]c1=O -5.79%
CCN(CC)C1=C(Cl)C(=O)C(Cl)C12OCCO2 (configuration not stated) -8.81%
Cc1ccc(N2CCN(C(=S)c3ccc(-c4cccc([N+](=O)[O-])c4)o3)CC2)cc1 16.7%
COc1ccc(-c2cc(=Nc3ccc(C)cc3)c3ccccc3o2)cc1 -19.5%
Cc1ccc(C(=O)NC(=S)NCCCN2CCOCC2)cc1 -0.501%
CCOC(=O)C1C(=O)CC(C)(O)C(C(=O)OCC)C1/C=C/c1ccccc1 (configuration not stated) 3.38%
CCc1cn([C@H]2C[C@H](O)[C@@H](CO)O2)c(=O)[nH]c1=O 1.39%
CSCCC(NC(=O)/C(=C/c1ccc2c(c1)OCO2)NC(=O)c1cccc([N+](=O)[O-])c1)C(=O)O (configuration not stated) -8.96%
CC(C)c1ccc(NC(=O)CNS(=O)(=O)c2ccc(F)cc2)cc1 5.55%
Oc1ccccc1OCCOc1ccccc1OCCOc1ccccc1O 1.41%
CCOCC(=O)Nc1nc2ccccc2s1 2.46%
O=c1[nH]c(=O)n(C2CCCO2)cc1F (configuration not stated) -0.727%
CC(NCCC(c1ccccc1)c1ccccc1)c1ccccc1 (configuration not stated) 3.17%
CC(C)c1ccccc1OCCNC(=S)NC(=O)c1cccnc1 4.15%
Cc1ccc2nc(C)c3c(c2c1)OC(C(C)(Cl)Br)C3 (configuration not stated) -1.28%
CN(C)c1nc(N(C)C)nc(N(C)C)n1 7.13%
O=C(CCc1c[nH]c2ccccc12)NCc1ccco1 -4.69%
COC(=O)CSc1nc2ccc(N)cc2s1 -7.52%
Nc1ccc2[nH]ncc2c1 6.95%
C=C(C)COc1ccc(-c2nc(N)ncc2-c2ccc(OC)cc2)c(O)c1 -13.9%
Cc1ccc(S(=O)(=O)N2CCC(C(=O)N[C@@H](C)C(=O)NC3CCS(=O)(=O)C3)CC2)cc1 (some centres not stated) -8.37%
NNC(=O)c1cc(O)c(O)c(O)c1 -2.58%
O=C(O)c1cc(-c2ccccc2)nc2ccccc12 -0.536%
CC(=O)O[C@]1(C(C)=O)CC[C@H]2[C@@H]3C[C@H](C)C4=CC(=O)CC[C@]4(C)[C@H]3CC[C@@]21C -7.46%
C[C@H]1C[C@@H]2[C@H]([C@@H](O)C[C@@]3(C)[C@H]2CC[C@]3(O)C(=O)CO)[C@@]2(C)C=CC(=O)C=C12 1.1%
O=C1[C@@H]2[C@H](Cc3ccc(O)cc3)N[C@]3(C(=O)Nc4ccccc43)[C@@H]2C(=O)N1c1ccc(F)cc1 6.94%
CCOC(=O)N1CCN(Cc2nc(Cc3cccc(F)c3)no2)CC1 3.92%
COc1ccc(NC(=O)Nc2ccc(C(C)C)cc2)cc1 0.108%
COc1cccc(NC(=O)C2CC(=O)OC23CCOC(C)(C)C3)c1 (configuration not stated) 2.76%
CC12CCC(C(=O)NCc3ccccn3)(OC1=O)C2(C)C (configuration not stated) -9.47%
COC(=O)c1ccc(-c2ncc(-c3cccc4ccccc34)o2)cc1 -6.2%
O=C(Nc1ccccc1C(=O)N1CCCCCC1)c1ccccc1Cl -13%
CCCNCC(O)COc1ccccc1C(=O)CCc1ccccc1 (configuration not stated) -0.563%
CN1CCc2c(n(CC(O)CN(CCO)CCO)c3ccccc23)C1=O (configuration not stated) 2.23%
O=[N+]([O-])c1cccc2cn[nH]c12 -7.02%
COc1ccc(-c2noc(-c3ccccc3-c3ccccc3)n2)cc1 -0.851%
O=C(Nc1ncc2c(n1)CC(c1ccco1)CC2=O)c1ccco1 (configuration not stated) -12.4%
COC(=O)c1[nH]c2ccc(C)cc2c1NC(=O)CN1CCc2cc(OC)c(OC)cc2C1 -11.5%
COc1ccc(-c2[nH]ncc2C=O)cc1OC 7.91%
COc1ccc(C2CNC(=O)C2)cc1OC1CCCC1 (configuration not stated) -4.56%
COc1cccc2c(=O)c(C/C=C(/C)Cl)c(C)[nH]c12 18.2%
CC(C)c1ccc(/C=C/C(=O)O)cc1 -10.9%
N#Cc1c2c(c(-c3ccccc3)[nH]c1=O)CCCC2 21.3%
Cc1nc(-c2coc3c(CN(C)C)c(O)ccc3c2=O)cs1 -0.278%
Cc1c(O)c(=O)ccn1C 5.38%
CCC(=O)O[C@]1(C(=O)CCl)[C@@H](C)C[C@H]2[C@@H]3CCC4=CC(=O)C=C[C@]4(C)[C@@]3(F)[C@@H](O)C[C@@]21C -0.602%
Cc1ccc(C(=O)N2CC3(C(C)C)CN(C(=O)c4ccc(C)cc4)CC(C(C)C)(C2)C3=O)cc1 2.69%
CN(C)CC/C=C1\c2ccccc2Sc2ccc(Cl)cc21 2.84%
CCOc1cccc(N2C(=O)CC(N(CCc3ccc(OC)c(OC)c3)C(=O)CC)C2=O)c1 (configuration not stated) 2.48%
CCN(CCCCCN(C)C)Cc1cc2ccccc2o1 -0.0353%
O=C1OCCN1/N=C/c1ccc([N+](=O)[O-])o1 -15.3%
COc1ccc(CCN(C)CC(=O)Nc2cc(C)nc3ccccc23)cc1OC -16.9%
COc1ccc(NC2=C(Cl)C(=O)N(c3ccccc3)C2=O)c(OC)c1 -1.15%
COc1ccc(NC(=O)C2CSC3c4ccccc4C(=O)N23)cc1 (configuration not stated) -11.1%
O=C(COc1ccccc1)Nc1ccc2c(c1)C(=O)N(CC1CCCO1)C2=O (configuration not stated) 14.9%
COc1cc(Cl)cc2c1Sc1ccccc1/C2=C/CCN(C)C 2.48%
COc1ccc(C2CC(c3c(O)cc(C)oc3=O)=NCCS2)c(OC)c1 (configuration not stated) -2.18%
CCOC(=O)c1cccc(C(=O)OCC)n1 -8.31%
O=C(Cc1ccccc1[N+](=O)[O-])NCCCN1CCOCC1 3.4%
CC(C)(C)[C@]1(O)CCN2C[C@H]3c4ccccc4CCc4cccc(c43)[C@@H]2C1 -9.67%
CN1[C@@H]2CC[C@H]1CC(OC(=O)C(CO)c1ccccc1)C2 (some centres not stated) -1.73%
COc1ccc(C2=C(CN(C)C)C(c3ccccc3)c3ccccc3O2)cc1 (configuration not stated) -7.98%
COc1ccc(CNCCC2(C(C)C)CCOC(C)(C)C2)cc1 (configuration not stated) -1.55%
CC1Cc2ccccc2N1NC(=O)c1ccc(Cl)c(S(N)(=O)=O)c1 (configuration not stated) -8.98%
CC(=O)Oc1cc2oc(=O)cc(C)c2cc1OC(C)=O -2.57%
CC(=O)O[C@H]1C(=O)[C@@]2(C)[C@H]([C@H](OC(=O)c3ccccc3)[C@]3(O)C[C@H](OC(=O)[C@H](O)C(NC(=O)c4ccccc4)c4ccccc4)C(C)=C1C3(C)C)[C@]1(OC(C)=O)CO[C@@H]1C[C@@H]2O (some centres not stated) 4.3%
Cn1c2[n+](c3ccc(Cl)cc3c1=O)Cc1ccccc1-2 9.2%
O=C(NCCC(c1ccccc1)c1ccco1)c1cccs1 (configuration not stated) -5.77%
Cc1ccc(C(=O)Nc2ccccc2C(=O)NC(C(=O)O)C(C)C)cc1 (configuration not stated) 1.89%
O=C(CCCn1c(=O)oc2ccccc21)N1CCN(c2ccc(F)cc2)CC1 -2.64%
CCn1c(SCC(=O)c2ccccc2)nc2ccccc2c1=O -10.3%
COc1ccc(C(=O)C2CCCCC2=O)cc1 (configuration not stated) -0.967%
Cc1ccc(-n2cc(CNCCN3CCOC3=O)c(-c3ccc(F)cc3)n2)cc1 -1.08%
COc1ccc(N2C(=O)[C@@H]3Cc4ccccc4CN3C2=O)cc1 -1.63%
CCC(C(=O)OCCN(CC)CC)c1ccccc1 (configuration not stated) -6.66%
CC(C)(C)n1c(=O)[nH]c2c(c1=O)CCC2 3.02%
O=C1CC2(CCCC2)CC(=O)N1CCCCN1CCN(c2ncccn2)CC1 5.29%
CC[C@H]1OC(=O)[C@H](C)[C@@H](O[C@H]2C[C@@](C)(OC)[C@@H](O)[C@H](C)O2)[C@H](C)[C@@H](O[C@@H]2O[C@H](C)C[C@H](N(C)C)[C@H]2O)[C@](C)(O)C[C@@H](C)[C@@H]2N[C@@H](COCCOC)O[C@H]([C@H]2C)[C@]1(C)O 7.68%
COc1ccc2c(CC(=O)NCC3CCC(C(=O)O)CC3)cc(=O)oc2c1 (configuration not stated) 8.32%

Not a retest: an excerpt of the list.
Growth inhibition, inactive:
O=C1[C@@H]2[C@H](Cc3ccc(O)cc3)N[C@]3(C(=O)Nc4ccccc43)[C@@H]2C(=O)N1c1ccc(F)cc1 6.94%
CCOC(=O)N1CCN(Cc2nc(Cc3cccc(F)c3)no2)CC1 3.92%

Arranged by SMILES length (descending): three of the compounds above.
Growth inhibition, inactive:
O=C1CC2(CCCC2)CC(=O)N1CCCCN1CCN(c2ncccn2)CC1 5.29%
CC(NCCC(c1ccccc1)c1ccccc1)c1ccccc1 (configuration not stated) 3.17%
CC(C)(C)C(=O)N1CCCC1C(=O)O (configuration not stated) -5.36%
